Data taken from the supplement of paper PMC10849652.
This is one part of the list.

By UniProt entry, the sequences of proteins in these tests, tags left out. Where a name states a change or a piece, a line headed by the entry shows the natural chain unless it says otherwise.
UniProt O15439: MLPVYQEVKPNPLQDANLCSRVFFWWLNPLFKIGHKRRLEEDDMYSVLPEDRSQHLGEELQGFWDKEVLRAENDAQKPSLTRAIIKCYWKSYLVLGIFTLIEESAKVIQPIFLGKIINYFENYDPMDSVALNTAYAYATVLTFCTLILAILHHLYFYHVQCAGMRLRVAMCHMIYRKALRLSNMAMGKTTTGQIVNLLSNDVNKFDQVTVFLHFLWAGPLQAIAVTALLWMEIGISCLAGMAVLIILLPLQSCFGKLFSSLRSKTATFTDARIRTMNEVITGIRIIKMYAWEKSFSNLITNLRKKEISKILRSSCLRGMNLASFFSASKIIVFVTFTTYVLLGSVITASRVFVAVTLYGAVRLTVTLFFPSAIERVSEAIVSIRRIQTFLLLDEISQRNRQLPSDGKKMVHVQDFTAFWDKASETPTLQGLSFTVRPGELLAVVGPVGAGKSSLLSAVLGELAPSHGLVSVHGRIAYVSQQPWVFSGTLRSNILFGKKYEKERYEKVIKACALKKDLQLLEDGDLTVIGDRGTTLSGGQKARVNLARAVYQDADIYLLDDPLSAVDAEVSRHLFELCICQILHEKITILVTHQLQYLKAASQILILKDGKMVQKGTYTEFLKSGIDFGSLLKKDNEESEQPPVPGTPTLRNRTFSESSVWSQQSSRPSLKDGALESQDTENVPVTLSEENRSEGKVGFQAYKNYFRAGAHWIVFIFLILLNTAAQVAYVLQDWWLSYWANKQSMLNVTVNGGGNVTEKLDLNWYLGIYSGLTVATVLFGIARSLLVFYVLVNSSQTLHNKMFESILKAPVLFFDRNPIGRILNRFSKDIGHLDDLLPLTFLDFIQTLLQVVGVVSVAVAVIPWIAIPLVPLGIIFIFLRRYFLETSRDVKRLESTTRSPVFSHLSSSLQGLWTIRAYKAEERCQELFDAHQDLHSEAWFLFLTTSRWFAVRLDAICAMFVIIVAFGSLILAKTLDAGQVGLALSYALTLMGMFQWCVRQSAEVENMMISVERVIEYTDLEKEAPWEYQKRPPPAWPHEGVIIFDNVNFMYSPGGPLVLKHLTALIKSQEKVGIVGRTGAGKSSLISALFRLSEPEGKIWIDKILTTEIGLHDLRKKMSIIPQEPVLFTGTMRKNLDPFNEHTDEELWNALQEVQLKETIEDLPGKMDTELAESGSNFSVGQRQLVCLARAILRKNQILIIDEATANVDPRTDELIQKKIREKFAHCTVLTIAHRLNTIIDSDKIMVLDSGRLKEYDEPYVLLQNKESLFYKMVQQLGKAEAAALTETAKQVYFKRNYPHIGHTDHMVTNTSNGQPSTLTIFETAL
UniProt O96019, whole entry, looked up: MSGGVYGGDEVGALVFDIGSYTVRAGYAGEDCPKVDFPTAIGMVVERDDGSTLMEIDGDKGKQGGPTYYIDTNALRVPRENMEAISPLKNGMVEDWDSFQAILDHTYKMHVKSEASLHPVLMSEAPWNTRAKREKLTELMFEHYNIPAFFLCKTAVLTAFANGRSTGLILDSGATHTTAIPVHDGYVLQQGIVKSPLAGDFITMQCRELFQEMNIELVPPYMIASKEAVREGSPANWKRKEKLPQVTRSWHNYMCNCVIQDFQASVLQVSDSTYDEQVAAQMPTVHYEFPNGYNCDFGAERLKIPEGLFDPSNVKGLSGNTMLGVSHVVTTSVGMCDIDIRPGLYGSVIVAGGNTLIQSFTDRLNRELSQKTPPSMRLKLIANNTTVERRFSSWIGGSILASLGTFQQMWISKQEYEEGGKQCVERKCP
UniProt Q96IU4: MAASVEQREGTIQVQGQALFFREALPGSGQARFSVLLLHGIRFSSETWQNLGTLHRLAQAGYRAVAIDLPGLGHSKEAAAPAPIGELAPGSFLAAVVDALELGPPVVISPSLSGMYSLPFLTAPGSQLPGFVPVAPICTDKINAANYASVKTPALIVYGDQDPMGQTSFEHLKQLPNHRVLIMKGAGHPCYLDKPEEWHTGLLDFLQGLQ
UniProt Q6UY14: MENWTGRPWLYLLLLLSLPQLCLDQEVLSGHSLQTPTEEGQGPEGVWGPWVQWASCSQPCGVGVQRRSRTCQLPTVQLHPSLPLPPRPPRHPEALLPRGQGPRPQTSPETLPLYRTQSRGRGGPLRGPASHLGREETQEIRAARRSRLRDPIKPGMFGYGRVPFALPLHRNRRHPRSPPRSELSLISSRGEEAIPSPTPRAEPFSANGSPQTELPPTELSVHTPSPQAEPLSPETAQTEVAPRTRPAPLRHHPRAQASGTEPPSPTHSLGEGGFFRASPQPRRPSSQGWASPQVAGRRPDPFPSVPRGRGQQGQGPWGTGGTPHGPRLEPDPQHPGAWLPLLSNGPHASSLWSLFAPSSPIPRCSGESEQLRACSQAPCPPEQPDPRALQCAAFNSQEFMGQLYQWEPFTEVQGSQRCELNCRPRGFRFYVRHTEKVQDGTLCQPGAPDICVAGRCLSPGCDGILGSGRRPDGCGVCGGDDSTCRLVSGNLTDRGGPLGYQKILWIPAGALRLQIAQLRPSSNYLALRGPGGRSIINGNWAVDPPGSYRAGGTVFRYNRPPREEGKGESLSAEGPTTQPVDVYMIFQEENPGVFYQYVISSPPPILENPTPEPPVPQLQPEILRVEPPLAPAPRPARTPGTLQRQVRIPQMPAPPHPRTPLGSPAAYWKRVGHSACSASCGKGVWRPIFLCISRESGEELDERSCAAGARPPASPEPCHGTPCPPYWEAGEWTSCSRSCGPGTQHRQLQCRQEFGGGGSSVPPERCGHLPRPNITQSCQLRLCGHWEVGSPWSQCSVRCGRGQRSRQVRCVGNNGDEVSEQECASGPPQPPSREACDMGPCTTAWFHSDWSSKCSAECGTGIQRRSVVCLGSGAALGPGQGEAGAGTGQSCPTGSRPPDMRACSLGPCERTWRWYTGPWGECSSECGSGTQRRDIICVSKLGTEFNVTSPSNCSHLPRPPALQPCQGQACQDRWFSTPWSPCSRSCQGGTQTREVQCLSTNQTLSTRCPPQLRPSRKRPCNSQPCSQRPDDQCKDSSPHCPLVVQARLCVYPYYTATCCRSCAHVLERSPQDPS
UniProt Q9H568: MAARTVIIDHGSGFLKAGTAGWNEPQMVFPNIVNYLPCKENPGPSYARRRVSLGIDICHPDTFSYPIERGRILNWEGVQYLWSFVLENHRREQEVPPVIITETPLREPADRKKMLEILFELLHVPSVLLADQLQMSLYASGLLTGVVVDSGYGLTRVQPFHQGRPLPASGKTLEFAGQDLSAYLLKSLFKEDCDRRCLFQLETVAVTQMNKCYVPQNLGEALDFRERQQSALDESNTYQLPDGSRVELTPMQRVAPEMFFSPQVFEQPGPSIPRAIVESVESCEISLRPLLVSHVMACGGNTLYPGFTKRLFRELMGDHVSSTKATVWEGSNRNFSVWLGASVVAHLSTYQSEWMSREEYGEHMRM
UniProt O43707, whole entry, looked up: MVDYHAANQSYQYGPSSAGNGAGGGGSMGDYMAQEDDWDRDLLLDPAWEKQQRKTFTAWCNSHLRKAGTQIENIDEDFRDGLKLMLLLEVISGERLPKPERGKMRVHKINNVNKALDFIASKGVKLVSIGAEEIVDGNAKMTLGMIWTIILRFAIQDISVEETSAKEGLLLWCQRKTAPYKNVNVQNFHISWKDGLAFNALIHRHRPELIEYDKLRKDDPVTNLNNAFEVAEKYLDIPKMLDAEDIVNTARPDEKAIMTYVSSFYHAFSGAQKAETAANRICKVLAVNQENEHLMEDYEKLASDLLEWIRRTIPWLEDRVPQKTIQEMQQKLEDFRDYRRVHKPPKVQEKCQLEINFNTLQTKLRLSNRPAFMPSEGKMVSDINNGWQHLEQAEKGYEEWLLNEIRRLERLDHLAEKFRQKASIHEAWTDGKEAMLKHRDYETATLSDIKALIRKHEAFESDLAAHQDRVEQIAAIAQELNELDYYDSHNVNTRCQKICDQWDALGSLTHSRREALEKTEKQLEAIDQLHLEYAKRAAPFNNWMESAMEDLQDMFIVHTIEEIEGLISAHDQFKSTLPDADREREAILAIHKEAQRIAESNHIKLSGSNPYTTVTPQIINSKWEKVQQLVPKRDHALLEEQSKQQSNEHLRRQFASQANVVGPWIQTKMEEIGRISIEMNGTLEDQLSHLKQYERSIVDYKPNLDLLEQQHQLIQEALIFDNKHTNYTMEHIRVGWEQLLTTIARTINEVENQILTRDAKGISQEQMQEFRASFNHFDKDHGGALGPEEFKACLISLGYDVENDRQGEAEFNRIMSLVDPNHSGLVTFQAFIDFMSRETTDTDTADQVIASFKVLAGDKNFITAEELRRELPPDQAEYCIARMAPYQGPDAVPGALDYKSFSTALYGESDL
UniProt P21399: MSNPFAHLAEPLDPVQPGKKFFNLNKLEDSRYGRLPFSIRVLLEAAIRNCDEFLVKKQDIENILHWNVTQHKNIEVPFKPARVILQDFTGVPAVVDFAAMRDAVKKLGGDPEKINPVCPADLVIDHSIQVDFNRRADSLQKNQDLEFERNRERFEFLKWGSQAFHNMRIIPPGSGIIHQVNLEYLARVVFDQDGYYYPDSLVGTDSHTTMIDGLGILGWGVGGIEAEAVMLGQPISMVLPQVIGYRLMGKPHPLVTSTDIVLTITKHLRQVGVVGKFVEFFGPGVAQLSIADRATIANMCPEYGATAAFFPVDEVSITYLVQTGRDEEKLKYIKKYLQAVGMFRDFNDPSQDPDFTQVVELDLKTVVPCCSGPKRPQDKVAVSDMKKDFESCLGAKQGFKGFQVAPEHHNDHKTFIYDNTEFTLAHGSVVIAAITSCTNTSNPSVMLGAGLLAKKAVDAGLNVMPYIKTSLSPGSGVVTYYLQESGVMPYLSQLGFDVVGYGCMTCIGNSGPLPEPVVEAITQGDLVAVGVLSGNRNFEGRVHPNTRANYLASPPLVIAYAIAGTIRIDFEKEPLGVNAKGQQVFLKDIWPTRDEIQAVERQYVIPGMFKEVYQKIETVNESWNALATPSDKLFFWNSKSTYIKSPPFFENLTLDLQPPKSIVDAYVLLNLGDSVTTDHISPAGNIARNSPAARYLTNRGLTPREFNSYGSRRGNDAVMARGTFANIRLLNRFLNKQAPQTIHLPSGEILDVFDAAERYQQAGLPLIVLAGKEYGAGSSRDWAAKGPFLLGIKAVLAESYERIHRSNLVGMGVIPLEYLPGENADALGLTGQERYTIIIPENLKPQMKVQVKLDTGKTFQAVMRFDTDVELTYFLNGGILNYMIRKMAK
UniProt P28288: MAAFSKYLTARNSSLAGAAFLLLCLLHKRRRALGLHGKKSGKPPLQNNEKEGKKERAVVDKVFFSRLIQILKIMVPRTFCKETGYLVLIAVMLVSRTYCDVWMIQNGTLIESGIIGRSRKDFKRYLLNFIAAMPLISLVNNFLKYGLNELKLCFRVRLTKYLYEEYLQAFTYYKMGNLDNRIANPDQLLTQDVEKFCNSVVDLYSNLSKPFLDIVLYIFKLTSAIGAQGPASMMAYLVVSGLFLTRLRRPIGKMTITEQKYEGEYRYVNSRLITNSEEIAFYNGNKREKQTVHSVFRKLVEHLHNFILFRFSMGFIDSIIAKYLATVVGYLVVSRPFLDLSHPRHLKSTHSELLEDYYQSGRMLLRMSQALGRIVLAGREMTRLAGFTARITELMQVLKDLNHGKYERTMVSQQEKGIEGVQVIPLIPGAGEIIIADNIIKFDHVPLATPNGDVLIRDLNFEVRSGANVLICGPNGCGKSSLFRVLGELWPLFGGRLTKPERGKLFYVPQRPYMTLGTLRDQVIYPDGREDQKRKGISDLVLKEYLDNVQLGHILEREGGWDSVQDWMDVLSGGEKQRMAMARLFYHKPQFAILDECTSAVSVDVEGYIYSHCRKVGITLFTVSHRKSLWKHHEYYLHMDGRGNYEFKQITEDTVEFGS
UniProt P07311: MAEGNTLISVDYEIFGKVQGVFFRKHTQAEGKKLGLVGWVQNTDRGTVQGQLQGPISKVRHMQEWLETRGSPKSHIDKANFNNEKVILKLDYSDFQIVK
UniProt Q9UG63: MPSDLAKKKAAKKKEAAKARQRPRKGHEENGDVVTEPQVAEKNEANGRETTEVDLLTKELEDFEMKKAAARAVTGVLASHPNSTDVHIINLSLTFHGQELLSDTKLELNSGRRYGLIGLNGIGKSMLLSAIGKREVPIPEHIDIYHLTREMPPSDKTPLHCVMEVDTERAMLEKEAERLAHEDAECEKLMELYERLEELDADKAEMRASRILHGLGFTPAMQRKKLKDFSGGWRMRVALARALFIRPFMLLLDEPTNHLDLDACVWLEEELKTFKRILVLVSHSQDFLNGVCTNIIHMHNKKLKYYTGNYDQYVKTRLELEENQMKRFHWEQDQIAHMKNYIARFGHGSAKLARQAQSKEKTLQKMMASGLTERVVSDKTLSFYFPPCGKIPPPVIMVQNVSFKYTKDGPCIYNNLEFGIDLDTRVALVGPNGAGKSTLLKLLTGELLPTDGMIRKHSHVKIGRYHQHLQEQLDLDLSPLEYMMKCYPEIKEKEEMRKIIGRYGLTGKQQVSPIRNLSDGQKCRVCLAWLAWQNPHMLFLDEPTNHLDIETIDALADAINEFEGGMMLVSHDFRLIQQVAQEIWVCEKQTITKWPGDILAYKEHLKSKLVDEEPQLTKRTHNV

What was measured:
Experiment in all cases: log2 fold change, soluble protein after heating vs DMSO (PISA); higher = thermal stabilisation; K562 cells, 10 uM, 30 min; active = over 0.2 and 3.5 SD of the protein, either way, in both replicates (recomputed)
[1] = compound: CS(=O)(=O)c1ccc(-c2cnc(N)c(C(=O)Nc3ccccc3)n2)cc1
Procedure, shortened: (§1)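 K562 cells at 2×10^6 cells/mL were treated for 30 min with 10 μM compound, and aliquots were heated for 3 min over 48°C-58°C before pooling. Extraction used PBS with 0.5% NP-40 at 4°C, and soluble protein was the supernatant after 21,000xg for 90 min, measured by TMTpro 16plex LC-MS/MS with channel sums equalised. Thermal stability values, relative to control samples and from duplicates, are log2 fold changes.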

[2] = compound: C[C@@H](Oc1cc(-c2cnn(C3CCNCC3)c2)cnc1N)c1c(Cl)ccc(F)c1Cl [crizotinib]
Procedure, shortened: as §1

[3] = compound: C[C@@H]1COCCN1C2=NC(=NC(=C2)C3(CC3)S(=O)(=O)C)C4=C5C=CNC5=CC=C4
Procedure, shortened: as §1

[4] = compound: C[C@H](C1=CC=C(C=C1)C(=O)NC2=C3C=CNC3=NC=C2)N
Procedure, shortened: as §1

[5] = compound: C[C@H](Nc1ncnc2nc[nH]c12)c1cc2cccc(Cl)c2c(=O)n1-c1ccccc1 [duvelisib]
Procedure, shortened: as §1

[6] = compound: Cc1cc(Nc2cc(CN3CCOCC3)c3nc(C)c(Cc4ccc(Cl)cc4F)n3n2)n[nH]1 [gandotinib]
Procedure, shortened: as §1

[7] = compound: Cc1cc(Nc2cc(N3CCN(C)CC3)nc(Sc3ccc(NC(=O)C4CC4)cc3)n2)n[nH]1 [tozasertib]
Procedure, shortened: as §1

[8] = compound: Cc1cc(SCc2sc(-c3ccc(C(F)(F)F)cc3)nc2C)ccc1OCC(=O)O
Procedure, shortened: as §1

[9] = compound: Cc1ccc(-n2nc(C(C)(C)C)cc2NC(=O)Nc2ccc(OCCN3CCOCC3)c3ccccc23)cc1 [doramapimod]
Procedure, shortened: as §1

[10] = compound: Cc1ccc(C(=O)N(CCCN)[C@@H](c2nc3cc(Cl)ccc3c(=O)n2Cc2ccccc2)C(C)C)cc1 [ispinesib]
Procedure, shortened: as §1

Measured: log2 fold change

ADAM9 (UniProt Q13443)
inactive: [1] 0.014 | [2] 0.038 | [3] -0.026 | [4] 0.018 | [5] -0.005 | [6] 0.042 | [7] 0.014 | [8] -0.076 | [9] -0.019 | [10] 0.059

ABCC4 (UniProt O15439)
inactive: [1] 0.062 | [2] 0.083 | [3] 0.063 | [4] -0.072 | [5] 0.063 | [6] 0.022 | [7] -0.074 | [8] -0.052 | [9] 0.004 | [10] 0.082

ACTL6A (UniProt O96019)
inactive: [1] 0.025 | [2] 0.022 | [3] 0.196 | [4] -0.027 | [5] 0.019 | [6] -0.012 | [7] 0.002 | [8] 0.005 | [9] -0.068 | [10] 0.034

ACAA2 (UniProt P42765)
inactive: [1] 0.009 | [2] 0.076 | [3] 0.004 | [4] -0.06 | [5] 0 | [6] 0.052 | [7] -0.015 | [8] -0.041 | [9] 0.011 | [10] 0.025

ABHD14B (UniProt Q96IU4)
inactive: [1] -0.013 | [2] -0.005 | [3] 0.167 | [4] -0.135 | [5] 0.091 | [6] -0.095 | [7] 0.046 | [8] 0.028 | [9] 0 | [10] 0.148

ACTR2 (UniProt P61160)
inactive: [1] 0.022 | [2] 0.023 | [3] 0.029 | [4] -0.064 | [5] 0.012 | [6] 0.078 | [7] 0.022 | [8] -0.014 | [9] -0.005 | [10] 0.043

ACSS2 isoform 2 (UniProt Q9NR19)
inactive: [1] 0.019 | [2] 0.004 | [3] 0.077 | [4] -0.021 | [5] 0.001 | [6] -0.079 | [7] 0.012 | [8] 0.005 | [9] -0.052 | [10] 0.014

ACTB, A0A2R8Y793
inactive: [1] -0.035 | [2] 0.031 | [3] 0.003 | [4] -0.051 | [5] 0.054 | [6] 0.018 | [7] 0.026 | [8] -0.017 | [9] -0.019 | [10] 0.077

ACAT1, A0A5F9ZHJ0
inactive: [1] -0.022 | [2] -0.034 | [3] 0.042 | [4] 0.024 | [5] 0.013 | [6] -0.135 | [7] -0.212 | [8] -0.101 | [9] -0.017

ACADL (UniProt P28330)
inactive: [1] -0.162

Two records picked at random from the list so far, as already listed:
ACAA2 (UniProt P42765)
inactive: [1] 0.009 | [2] 0.076 | [3] 0.004 | [4] -0.06 | [5] 0 | [6] 0.052 | [7] -0.015 | [8] -0.041 | [9] 0.011 | [10] 0.025

ABCC4 (UniProt O15439)
inactive: [1] 0.062 | [2] 0.083 | [3] 0.063 | [4] -0.072 | [5] 0.063 | [6] 0.022 | [7] -0.074 | [8] -0.052 | [9] 0.004 | [10] 0.082

(cont.)

ACTR6 (UniProt Q9GZN1)
inactive: [1] -0.015 | [2] -0.051 | [3] 0.03 | [4] 0.061 | [5] 0.045 | [6] -0.056 | [7] 0.012 | [8] 0.035 | [9] 0.056 | [10] 0.021

ABCB10 (UniProt Q9NRK6)
inactive: [1] 0.02 | [2] 0.043 | [3] 0.026 | [4] -0.03 | [5] 0.012 | [6] -0.052 | [7] -0.017 | [8] -0.035 | [9] -0.041 | [10] -0.017

ADAMTSL4 isoform 3 (UniProt Q6UY14)
inactive: [1] 0.045 | [2] 0.102 | [3] -0.144 | [4] 0.002 | [5] -0.081 | [6] -0.244 | [7] 0.234 | [8] 0.036 | [9] -0.035 | [10] 0.048

ACTL8 (UniProt Q9H568)
inactive: [1] 0.057 | [2] 0.094 | [3] -0.03 | [4] -0.003 | [5] -0.013 | [6] -0.012 | [7] -0.022 | [8] -0.008 | [9] 0.055 | [10] 0.05

ACY1 (UniProt Q03154)
inactive: [1] -0.034 | [2] 0.013 | [3] 0.085 | [4] -0.02 | [5] 0.018 | [6] 0.034 | [7] -0.032 | [8] -0.026 | [9] 0.005 | [10] -0.003

ACTN4 (UniProt O43707)
inactive: [1] -0.006 | [2] 0.075 | [3] -0.002 | [4] -0.027 | [5] 0.025 | [6] -0.024 | [7] 0.02 | [8] -0.036 | [9] -0.016 | [10] 0.027

ACTN1 (UniProt P12814)
inactive: [1] -0.014 | [2] 0.031 | [3] 0.011 | [4] -0.049 | [5] 0.05 | [6] -0.012 | [7] -0.028 | [8] 0.004 | [9] 0.007 | [10] 0.056

ACBD3 (UniProt Q9H3P7)
inactive: [1] 0.024 | [2] 0.089 | [3] 0.002 | [4] -0.077 | [5] 0.005 | [6] 0.044 | [7] -0.009 | [8] 0.029 | [9] -0.003 | [10] 0.096

AARS (UniProt P49588)
inactive: [1] 0.008 | [2] -0.035 | [3] 0.082 | [4] -0.043 | [5] 0.053 | [6] -0.042 | [7] -0.003 | [8] 0 | [9] -0.005 | [10] 0.003

ACOT7 isoform 7 (UniProt O00154)
inactive: [1] 0.009 | [2] 0.064 | [3] 0.01 | [4] -0.087 | [5] 0.037 | [6] -0.024 | [7] -0.02 | [8] -0.021 | [9] -0.006 | [10] 0.045

ACO1 (UniProt P21399)
inactive: [1] 0.023 | [2] 0.104 | [3] 0.078 | [4] -0.116 | [5] 0 | [6] 0.007 | [7] 0.013 | [8] 0.016 | [9] -0.016 | [10] 0.086

ADAT3 (UniProt Q96EY9)
inactive: [1] 0.068 | [2] 0.05 | [3] 0.039 | [4] 0.04 | [5] 0.03 | [6] -0.234 | [7] -0.023 | [8] 0.071 | [9] 0.018 | [10] 0.045

ABCB7 isoform 2 (UniProt O75027)
inactive: [1] 0.018 | [2] -0.034 | [3] 0.035 | [4] -0.101 | [5] 0.06 | [6] -0.109 | [7] -0.017 | [8] -0.012 | [9] -0.016 | [10] -0.15

ABCF3 (UniProt Q9NUQ8)
inactive: [1] 0.085 | [2] -0.046 | [3] -0.305 | [4] 0.43 | [5] -0.064 | [6] 0.046 | [7] -0.035 | [8] 0.141 | [9] 0.141 | [10] -0.291

ABCD3 (UniProt P28288)
inactive: [1] 0.062 | [2] 0.043 | [3] 0.032 | [4] -0.014 | [5] 0.091 | [6] -0.043 | [7] -0.008 | [8] 0.009 | [9] 0.004 | [10] 0.167

ACYP1 (UniProt P07311)
inactive: [1] 0.115 | [2] 0.006 | [3] 0.055 | [4] -0.068 | [5] 0.023 | [6] 0.006 | [7] 0.041 | [8] -0.011 | [9] -0.007 | [10] 0.153

ABHD12 isoform 2 (UniProt Q8N2K0)
inactive: [1] -0.015 | [2] 0.048 | [3] -0.06 | [4] 0.076 | [5] -0.01 | [6] -0.033 | [7] 0.018 | [8] 0.079 | [9] 0.031 | [10] -0.114

ACAA1 (UniProt P09110)
inactive: [1] 0.017 | [2] 0.014 | [3] -0.034 | [4] -0.013 | [5] 0.023 | [6] -0.023 | [7] -0.021 | [8] -0.012 | [9] -0.005 | [10] 0.048

ABCE1 (UniProt P61221)
inactive: [1] 0 | [2] 0.021 | [3] 0 | [4] -0.038 | [5] 0.007 | [6] -0.007 | [7] -0.021 | [8] -0.044 | [9] -0.044 | [10] 0.033

ABCF2 isoform 2 (UniProt Q9UG63)
inactive: [1] 0.041 | [2] -0.117 | [3] 0.006 | [4] 0.008 | [5] 0.02 | [6] -0.035 | [7] -0.045 | [8] 0.027 | [9] 0.008 | [10] -0.031
